Results from PMC2679207, “GLS-1, a Novel P Granule Component, Modulates a Network of Conserved RNA Regulators to Influence Germ Cell Fate Decisions” (PLoS Genetics, 2009).
No constants are given. Whether binding was seen depends on the method and setting. Where a sequence is shown, tags or fusion partners need not be part of it.

Tests used:
Assay in all cases: two-hybrid; yeast; protein pairs fused to the LexA DNA binding domain and the Gal4 transcriptional activation domain; beta-galactosidase activities in arbitrary units
[1] = biological target: T1, FBF-1 (yeast two-hybrid fusion) (C. elegans) (UniProt Q9N5M6)
T1 sequence: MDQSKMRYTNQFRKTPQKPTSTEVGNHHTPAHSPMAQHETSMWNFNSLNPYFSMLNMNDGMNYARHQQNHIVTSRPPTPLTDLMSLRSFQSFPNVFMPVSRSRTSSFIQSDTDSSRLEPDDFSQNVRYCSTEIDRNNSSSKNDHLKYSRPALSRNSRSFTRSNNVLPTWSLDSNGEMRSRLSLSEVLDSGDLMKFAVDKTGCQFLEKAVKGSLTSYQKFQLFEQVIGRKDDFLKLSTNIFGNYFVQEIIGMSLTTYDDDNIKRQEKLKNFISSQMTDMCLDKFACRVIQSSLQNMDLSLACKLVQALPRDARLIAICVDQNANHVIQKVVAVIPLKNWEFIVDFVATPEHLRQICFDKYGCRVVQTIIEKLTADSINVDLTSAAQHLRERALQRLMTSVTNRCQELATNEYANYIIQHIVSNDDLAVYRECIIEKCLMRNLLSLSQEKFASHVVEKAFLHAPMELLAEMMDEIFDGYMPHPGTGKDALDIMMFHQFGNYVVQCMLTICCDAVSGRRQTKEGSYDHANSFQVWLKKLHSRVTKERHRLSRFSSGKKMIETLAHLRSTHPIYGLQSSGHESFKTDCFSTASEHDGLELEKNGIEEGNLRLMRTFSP

[2] = biological target: T2, FBF-2 (yeast two-hybrid fusion) (C. elegans) (UniProt Q09312)
T2 sequence: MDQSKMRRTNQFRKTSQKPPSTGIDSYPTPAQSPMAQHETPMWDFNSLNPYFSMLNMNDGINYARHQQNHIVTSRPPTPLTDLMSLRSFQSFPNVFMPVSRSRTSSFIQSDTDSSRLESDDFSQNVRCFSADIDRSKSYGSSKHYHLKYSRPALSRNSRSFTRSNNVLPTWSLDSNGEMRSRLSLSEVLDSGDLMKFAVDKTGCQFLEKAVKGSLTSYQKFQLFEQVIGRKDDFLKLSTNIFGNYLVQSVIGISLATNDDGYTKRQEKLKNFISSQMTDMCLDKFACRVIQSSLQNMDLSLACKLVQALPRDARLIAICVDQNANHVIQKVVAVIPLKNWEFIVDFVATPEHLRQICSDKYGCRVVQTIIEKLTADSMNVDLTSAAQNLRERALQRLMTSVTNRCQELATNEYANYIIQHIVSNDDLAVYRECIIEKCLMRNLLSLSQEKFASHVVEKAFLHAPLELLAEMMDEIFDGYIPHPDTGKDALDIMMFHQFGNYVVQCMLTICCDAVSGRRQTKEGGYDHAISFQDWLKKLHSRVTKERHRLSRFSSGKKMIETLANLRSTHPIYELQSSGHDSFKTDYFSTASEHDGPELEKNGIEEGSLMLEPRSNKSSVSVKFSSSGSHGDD

[3] = biological target: T3, dmBic-C (yeast two-hybrid fusion) (Drosophila) (UniProt Q24009)
T3 sequence: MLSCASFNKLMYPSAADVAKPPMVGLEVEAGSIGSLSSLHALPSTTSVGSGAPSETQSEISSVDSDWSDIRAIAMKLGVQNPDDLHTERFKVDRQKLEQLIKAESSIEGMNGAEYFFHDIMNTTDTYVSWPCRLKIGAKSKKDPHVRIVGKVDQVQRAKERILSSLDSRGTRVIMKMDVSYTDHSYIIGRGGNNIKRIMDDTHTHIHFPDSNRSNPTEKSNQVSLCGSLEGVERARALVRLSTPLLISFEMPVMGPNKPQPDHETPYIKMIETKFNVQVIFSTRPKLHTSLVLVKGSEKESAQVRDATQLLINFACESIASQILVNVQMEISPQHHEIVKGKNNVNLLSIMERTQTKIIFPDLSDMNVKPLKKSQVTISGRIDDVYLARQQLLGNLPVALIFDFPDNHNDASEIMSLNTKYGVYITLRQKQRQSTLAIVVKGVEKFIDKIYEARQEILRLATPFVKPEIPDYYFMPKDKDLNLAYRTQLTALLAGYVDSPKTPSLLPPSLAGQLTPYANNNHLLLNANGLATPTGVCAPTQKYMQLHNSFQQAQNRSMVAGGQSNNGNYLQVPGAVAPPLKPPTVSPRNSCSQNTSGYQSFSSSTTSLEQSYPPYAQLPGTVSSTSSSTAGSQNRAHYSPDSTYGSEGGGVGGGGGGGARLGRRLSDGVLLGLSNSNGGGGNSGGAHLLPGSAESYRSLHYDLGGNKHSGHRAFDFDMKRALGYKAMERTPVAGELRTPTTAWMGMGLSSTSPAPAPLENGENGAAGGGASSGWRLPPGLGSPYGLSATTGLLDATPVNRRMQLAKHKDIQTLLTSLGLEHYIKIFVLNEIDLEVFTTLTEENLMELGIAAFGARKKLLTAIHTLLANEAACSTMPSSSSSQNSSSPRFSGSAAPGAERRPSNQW

Measured: binding

B1: GLS-1 (yeast two-hybrid fusion) (protein, UniProt Q8I4M5 1-1052)
chain: MRCLISYLFHSFLIFLKFIRSDVTALTLQEKRKKSRLTGILMKSMANKKNHQQKKSTDGSTMNGNNATATAAATTQNSSQIGQNSNSSHSVTNDNTSSNNASTSTSSITSTTTTTTTVPSSQQSQSQNQYSHQRLSSTSSTSQQTGISKFPAKKAGHNELEKTSNTANSQSGAFKGTTNKDRPKEKEKNTHSGNRQSQVNHNHHHSNHVSGNQQNRKNKNRDHSNQSYRGGYTHNHNNYHSLENAKSSGFLSNSSLSSAGQISASSAPPVSTTPTAIPIFQESKIVQTDPPVEEAKKKKEKPKIKRDEEPMPYKSTDPKNMDSVMAFKEHDEWDKVEFMCELVSFLSPTDLRLLGNCIEGSVRCYNNQMRPVEKTSNCSDPTAGLPQFVCSPPPPPQQVYYFPGIADAALYQTRNAVNSVFVQQHPPGLPPLLGGMQNIMYPPDANFHHSTSCTTPSSSVSVANKDVNNVPVVLSSSVNGISNNIPSDRQQLDSKPNTARGSSGNINQSNTTSPEPEPGSNHISTTAANPAHPTSVTVPQSVPPVPQEPELFLKSVLDLTSYIYTLMAVCSSTNRKSAAKISDYVQNVILREKSQILERIPDELDKITVLQEIGKIVAAMTHHPAITLDDKMKYAALRDGLRAQIETLFRQYYTTQKQLEQSNLVVPSSQAVGDENDTDSDHESEEEFEPLSGVMGSRFESNPVQPSPSVPGTFFIIRFIGRQIEKNDNLFSLEIHWSDGDRTFAQRSRDQLKALQHRLLDEFGQQRSEKYLHQGCTTSYSSFDDDNKKLSASTSTMETFAPNGERIVPRLARDATPAQYVQYINELSDLPARMMLSAVICEEFNGTRAKTEDLLQETREASDGLIYSRWKNPRAKSPVRYFKRNATGSIDPIELPVNMQPFLYSNIPQTQVQTLFPSCSNCGGPHAPKHCEKQTLLSKKGDHRTRSDGEGSQQNGGTSSSNSYAPIHANLPHAVYIENPQAMLGSNHFNHHQQQHIIQNTIFHNGGQFRANGTYEPQIPIAYYHAQGTVQNSNNTGGVNGNSGGGNQNSNF
no binding: all assays above
